For 17 molecules, binding results are on record in patent publication US20170362330A1.

Sequences and labels used below:
B1: 3G7RY (aka 3G8) (antibody, V domains shown)
VH: EVQLVESGGGLVQPGGSLRLSCAASGFTFSDYYMSWIRQAPGKGLEWVSYISSSGSTIYYADSVKGRFTISRDNSKNTLYLQMNSLRAEDTAVYYCARDYGRIAAAGRRYWGQGTLVTVSS
VL: QSALTQPPSASATPGQRVTISCSGRTSNIGSNHVYWYQQLPGTAPKLLIYRNNQRPSGVPDRFSGSKSGTSASLAISGLRSEDEADYYCATWDDSLSGEVFGGGTKLTVL
B2: YS6 (antibody, V domains shown)
VH: B1 VH with E1Q, V5Q, L11V, Q13R, R109H
VL: SSELTQDPAVSVALGQTVRITCQGDSLRSYYASWYQQKPGQAPVLVIYGKNNRPSGIPDRFSGSSSGNTASLTITGAQAEDEADYYCNSRDSSGTHLEVFGGGTKVTVL
B3: 3G7 (antibody, V domains shown)
VH: B1 VH with E1Q, V5Q, L11V, Q13R, R109H
VL: B2 VL with L45P, G94S, L97R, E98G, V106L
B4: 3G7NY (antibody, V domains shown)
VH: B1 VH with R109N
VL: DIVMTQSPLSLPVTPGEPASISCRSSQSLLHSNGYDYLDWYLQKPGQSPQLLIYLGSNRASGVPDRFSGSGSGTDFTLKISRVETEDVGIYYCMQGLQTPSFGQGTKLEIK
B5: YS1 (antibody, V domains shown)
VH: B1 VH with R109H
VL: SSELTQDPAVSVALGQTVRITCQGDTLSTYYANWYQQKPGQAPVLVIYGKNNRPSGIPDRFSGSSSGNTASLTITGAQAEDEADYYCHSRDISGNYLFASGTKLTVL
B6: YS5 (antibody, V domains shown)
VH: QVQLVQSGGGVVQPGRSLRLACAASGLTVNNYAMHWVRQAPGKGLEWVAVISYDGNNKYYADSVKGRFTISRDNSKNTLYLQMNSLRAEDTAVYYCAKGGGYFDLWGRGTLVTVSS
VL: QSVLTQPPSVSGAPGQRVTISCTGSSSNIGAGYDVHWYQQLPGTAPKLLIYGNNNRPSGVPDRFSGSKSGTSASLAITGLQAEDEADYYCSSYTSGTWLFGGGTKLTVL
B7: YS5v1D (antibody, V domains shown)
VH: B6 VH with L27F
VL: B6 VL with N53D
B8: YS5F (antibody, V domains shown)
VH: B6 VH with L27F
VL: B6 VL
B9: SB1HGNY (antibody, V domains shown)
VH: QVQLQQSGGGVVQPGRSLRLSCAASGFTFSSYAMHWVRQAPGKGLEWVAFIRSDGSKKYYADSVKGRFTISRDNSKNTLYLQMNSLRAEDTAVYYCARHGNYFDSWGQGTLVTVSS
VL: DIQMTQSPSFLSASVGDRVTITCRASQGISSYLAWYQQKPGKAPKLLIYAASTLQSGVPSSFSGSGSGTEFTLTISSLQPEDFATYYCQQLASYPLTFGGGTKVDIK
B10: YS9 (antibody, V domains shown)
VH: QVQLVESGGGLIQPGGSLRLSCAASGFTVSSNYMSWVRQAPGKGLEWVSVIYTDGSTYYADSVKGRFTISRDNSKNTLYLQMNSLRAEDTAIYYCARDRGTSGYDWAWFDLWGQGTLVTVSS
VL: SSELTQDPAVSVALGQTVRITCQGDSLRTYYASWYQQRPGQAPILVLYGKNNRPSGIPDRFSGSSSGNTASLTITGAQAEDEADYYCNSRDSSGNHVVFGGGTKLTVL
B11: SB2 (antibody, V domains shown)
VH: EVQLVESGGGLVKPGGSLRLSCAASGFTFSDYYMSWIRQAPGKGLEWVSYISSSGSSIYYADSVKGRFTISRDNAKNSLYLQMNSLKAEDTAVYYCARDITDVVGVSFDYWGQGTLVTVSS
VL: DIQLTQSPSSLSASVGDRVTITCRASRSISTYLSWYQQKPGKAPKLLIYDASRLQNGVPSRFSGSGSDTDFTLTISSLQPEDFATYFCQQSYNPPWTFGQGTKLEIK
B12: YS4 (antibody, V domains shown)
VH: QVQLQESGGGLVQPGGSLRLSCAASGFTFSNYAMSWVRQAPGKGLEWVSTISGSGSSTFYVDSVKGRFTISRDNSKNTLYLQMNSLRAEDTAVYYCAQGLYSSGWANWFDPRGQGTLVTVSS
VL: KIVLTQSPSSLSASVGDTVTIACRASRDIRNDLAWYQQKPGKAPKLLIYGASSLQSGVPSRFSGSGSGTEFILTISSLQPEDFATYYCHRLNSYPLTFGGGTKVDIK
B13: YS12 (antibody, V domains shown)
VH: QVQLVESGGGVVQPGRSLRLSCAASGFTFSTYGMHWVRQAPGKGLEWLSFISYDGDEKYYADSVKGRFTISRDNSKNTLYLQMNSLRAEDTAVYWCAKASGYGMGILDYWGQGTLVTVSS
VL: SSELTQDPAVSVALGQTVRITCQGDSLRSYYVSWFQQKPGQAPVFVMYGQNNRPSGISERFSGSSSGNTASLIITGAQAEDEADYYCHSRDSSGTHLRVFGGGTKLTVL
B14: YS11 (antibody, V domains shown)
VH: QVQLVESGGGLVQPGGSLGLSCAASGFTFSNYWMSWVRQAPGKGLEWVANVRQDGGQKYYVDSVKGRFTISRDNAKNSLYLQMNSLRTEDTAVYFCVSQRNSGEHDYWGQGTLVTVSS
VL: SELTQDPAVSVALGQTVRITCQGDSLRSYYASWYQQKPGQAPVLVIYGENSRPSGIPDRFSGSSSGNTASLTITGAQAEDEADYYCNSWDSSGNHVVFGGGTKLTVL
B15: YS10 (antibody, V domains shown)
VH: QVQLQESGGGLVQPGGSLRLSCAASGFTFSSYAMSWVRQAPGKGLEWVSAISGSGGSTYYADSVKGRFTISRDNSKNTLYMQMNSLRAEDTAVYYCAKDRYYYGSGKDAFDIWGRGTMVTVSS
VL: QSVLTQPASVSGSPGQSITISCTGTGSDVGSYNYVSWYQQNPGKAPKLMIYEVSNRPSGVSNRFSGSKSGNTASLTISGLQAEDEADYYCSSYTTSSTLVFGGGTKVTVL
B16: UA8kappa (antibody, V domains shown)
VH: EVQLVESGGGVVQPGRSLRLSCAASGFTFSSFGMHWVRRAPGKGLEWVAVISYDGSNQYYADSVKGRFTISRDNSKNTLYLQMNSLRAEDTAVYYCGSRPGGGYASGSTVAYWGQGTLVTVSS
VL: NIQMTQSPSSLSASVGDRVTITCRAGQPISTYVNWYQHKPGKAPKLLIYGASNLQSGVPSRFSGGGSATDFTLTISSLQPEDFATYYCQQSYSSLLTFGDGTKVEIK
B17: YS7 (antibody, V domains shown)
VH: QVQLVQSGGGVVQPGRSLRLSCAASGFTFSSYAMHWVRQAPGKGLEWVAVISYDGSNKYYADSVKGRFTISRDTSTNTLYLQMNSLRADDTAVYYCGRESSGSPGVWGQGTTVTVSS
VL: SYVLTQDPAVSVALGQTVRITCQGDSLRSYYASWYQQKPGQAPVLVIYGKNNRPSGIPDRFSGSSSGNTASLTITGAQAEDEADYYCNSRDSSGNQFGGGTKLTVL

Positions count from the first letter of the chain named. Results are given in words; binding and its absence hold for the method and conditions named. Binding calls can cover weak binding; strength is not graded here.

One test addresses cynomolgus monkey CD46 (cynomolgus monkey). As to the kind of experiment: FACS on CHO cells transfected with cynomolgus monkey CD46.
As to B1, the binding entry is given as “binds”.
B2: the binding result is reported as “binds”.
Still for that read-out and setting: the entry for B3 is “binds”; for B4 it is “binds”; for B5 it is “binds”.
The same measure, in the same setting: the entry for B6 is “binds”; for B7 it is “binds”; for B8 it is “binds”.
As for B9, the binding entry was “binds”.
On to B10, for which the binding entry is on record as “binds”.
For the molecule B11, the binding result was “binds”.
Same read-out and setting: the entry for B12 is “binds”; for B13 it is “binds”.
As for B14, the binding entry is given as “binds”.
Same read-out and setting: to B15 belongs “binds”; to B16, “binds”.
For B17, the binding result is “binds”.

For a further test the target is unchanged. As to the kind of experiment: FACS on CHO-cynoCD46 cells, 4 C overnight, MFI against antibody concentration.
As for B6, the binding result is reported as “binds”.

The next test shares this target. Description: FACS on CHO cells transfected with cynomolgus monkey CD46 (panel CHO-cyno CD46).
On to B6, for which the binding result is given as “binds”.
